In PubChem BioAssay AID602313 (National Center for Advancing Translational Sciences (NCATS), 2012):
About 760 (0.19%) of roughly 390,000 compounds were called active. The shares of active, inactive and inconclusive entries below differ from those in the screen. The call rests on the fitted dose curve; in most records, active means well fitted inhibition curve with a large enough effect; inconclusive means small, poorly fitted or top-dose-only effect; inactive means flat fitted curve, though single readings scatter. Where the call is inconclusive, the potency comes from a doubtful curve fit.

assay: qHTS for Inhibitors of Vif-A3F Interactions: qHTS; conditions: HeLa A3F-eYFP + Vif (tagged APOBEC3F with the HIV-1 protein that degrades it), YFP fluorescence increase; series mostly up to 46.1 µM; activity, negative = active: at the top concentration; further: nearly all actives have a fitted effect of over 65% in size; on activity, negative = active: % of control where 0% means no effect
Outline: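 Fluorescence increase (Ex 488/Em 500-530) after overnight compound treatment at 37 deg C flags inhibition of Vif-driven A3F-eYFP loss in stable HeLa A3F-eYFP/Vif cells seeded overnight beforehand.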
Potency means the concentration at half of the fitted maximal effect.

| Compound | Potency | activity, negative = active |
| --- | --- | --- |
| Cc1nc2ccccc2n(CC(=O)Nc2cc(Cl)cc(Cl)c2)c1=O | inconclusive: 35.5 µM [inhibitor, single point] | – |
| Cc1nonc1C(=O)N/N=C/c1ccc(O)cc1O | – | inactive: -16.9% |
| COc1ccc(Cn2c(SCC#N)nc3ccc(N4CCOCC4)cc3c2=O)cc1 | – | inactive: 12.8% |
| O=C(N/N=C/c1ccc2c(c1)OCO2)c1sc2cc(Cl)ccc2c1Cl | inconclusive: 7.08 µM [inhibitor, partial curve, poor fit] | – |
| COc1ccc(-n2c(-c3ccc(Br)cc3)n[nH]c2=S)cc1 | – | inactive: 2.67% |
| O=C1c2ccccc2C(=O)c2cc(N3CCCCC3)ccc21 | inconclusive: 7.94 µM [inhibitor, partial curve, poor fit] | – |
| Cc1[nH]nc2c1C(c1ccc(F)cc1)C(C#N)=C(N)O2 (stereo unspecified) | – | inactive: -2.05% |
| Cc1ccc(N2C(=O)CC3(CCCC3)CC2=O)cc1 | inconclusive: 3.16 µM [inhibitor, partial curve, poor fit] | – |
| COc1cc2c(cc1OC)CN(c1ccc([N+](=O)[O-])cc1Cl)CC2 | – | inactive: -3.05% |
| O=C(c1ccc(F)cc1)N1CCN(C(=O)c2ccc([N+](=O)[O-])cc2)CC1 | inconclusive: 11.2 µM [inhibitor, partial curve, poor fit] | – |
| O=C(CCCC(=O)c1ccccc1)Nc1ccc(F)cc1 | – | inactive: -31.2% |
| COc1ccc2c(c1)c(=O)c(C(=O)c1ccc(Cl)cc1)cn2CC(=O)Nc1ccc(F)cc1 | inconclusive: 11.2 µM [inhibitor, partial curve, poor fit] | – |
| COc1ccc(CN(C(=O)c2snc(C(N)=O)c2N)C(C)C(=O)NCc2ccc(F)cc2)cc1 (stereo unspecified) | inconclusive: 35.5 µM [inhibitor, single point] | – |
| COC(=O)C1(C)NC(c2ccccc2C)C2C(=O)N(c3ccc(F)cc3)C(=O)C21 (stereo unspecified) | – | inactive: 12.4% |
| CCCOc1ccc(C(=O)Nc2cccc(NC(=O)c3ccc(Cl)cc3Cl)c2)cc1 | inconclusive: 3.55 µM [inhibitor, full curve, poor fit] | – |
| COc1ccc(/C=C2/SC(=O)N(CCC(=O)Nc3ccccc3C(=O)O)C2=S)cc1 | inconclusive: 2.51 µM [inhibitor, partial curve, poor fit] | – |
| CCN1C(=O)N/C(=C/c2ccc(C)o2)C1=O | – | inactive: 0.0603% |
| c1ccc2c(-n3cccn3)cccc2c1 | inconclusive: 3.16 µM [inhibitor, single point] | – |
| CN(C)c1ccc2c(O)cc(=O)n(C)c2c1 | – | inactive: -9.61% |
| CCC(=O)N1CCN(c2ccc(NC(=O)c3ccc(Br)o3)cc2)CC1 | – | inactive: -2.75% |
| CC(=O)c1ccc(OC(=O)/C=C/c2ccccc2)cc1 | inconclusive: 35.5 µM [inhibitor, single point] | – |
| COc1ccc(C(=O)NNC(=S)NC(=O)c2cccc([N+](=O)[O-])c2)cc1 | inconclusive: 35.5 µM [inhibitor, single point] | – |
| CN(C)CC1C2CCC(C2)C1O (stereo unspecified) | inconclusive: 5.01 µM [inhibitor, partial curve, poor fit] | – |
| Nc1c(N(CCC2=CCCCC2)C(=O)COc2ccc(F)cc2Cl)c(=O)[nH]c(=O)n1Cc1ccccc1 | – | inactive: -11.3% |

| Compound | Potency | activity, negative = active |
| --- | --- | --- |
| CCc1ccc(C(=O)NC(=S)Nc2ccc(N3CCOCC3)cc2)cc1 | active: 10 µM | – |
| Cc1cc(C)n(C(C[N+](=O)[O-])c2ccc(Cl)cc2)n1 (stereo unspecified) | – | inactive: -13.8% |
| CSc1nsc(SCC(=O)Nc2ccc(Cl)c(C(=O)O)c2)n1 | – | inactive: 8.85% |
| Cc1ccccc1OC1C(=O)N(Cc2ccc3c(c2)OCO3)C1c1sccc1C (stereo unspecified) | – | inactive: 3.82% |
| COc1ccccc1NC(=O)C1CCCN(C(=O)NCc2ccccc2)C1 (stereo unspecified) | inconclusive: 2.24 µM [inhibitor, partial curve, poor fit] | – |
| O=S(=O)([N-]c1nc2ccccc2nc1-[n+]1ccccc1)c1ccccc1 | inconclusive: 22.4 µM [inhibitor, single point] | – |
| O=C(NCCC1=CCCCC1)c1coc(=O)c(Br)c1 | inconclusive: 6.31 µM [inhibitor, single point] | – |
| O=C(Nc1ccc2oc(-c3ccc4ccccc4c3)nc2c1)c1cccc(Cl)c1Cl | inconclusive: 20 µM [inhibitor, single point] | – |
| CCOc1ccc(NC(=O)c2cnn3c2NC(c2ccccc2)=CC3c2cccc(OC)c2OC)cc1 (stereo unspecified) | – | inactive: -0.165% |
| COC(=O)c1c(C)[nH]c(C(=O)CC#N)c1C | inconclusive: 35.5 µM [inhibitor, single point] | – |
| NC(=NC(=O)c1ccccc1)N1CCN(C(c2ccccc2)c2ccccc2)CC1 | inconclusive: 17.8 µM [inhibitor, single point] | – |
| c1ccc2[nH]c3cc4ncnc4cc3nc2c1 | inconclusive: 35.5 µM [inhibitor, single point] | – |
| CCOn1c(=O)c[n+]([O-])c2ccccc21 | inconclusive: 35.5 µM [inhibitor, single point] | – |
| CC(=O)Nc1cccc(NC(=O)CSc2nc(C)c(C)c(C)c2C#N)c1 | – | inactive: -21.5% |
| Cc1cc2c(cc1C)NC(CC(=O)Nc1cccc(C)c1C)C(=O)N2 (stereo unspecified) | – | inactive: -4.73% |
| CN(CC(=O)NCc1ccc(Cl)cc1)S(=O)(=O)c1ccc2c(c1)c(=O)n(C)c(=O)n2C | – | inactive: -4.22% |
| Cc1cc(C=C2C(=O)c3ccccc3C2=O)c(C)n1-c1ccccc1 | inconclusive: 35.5 µM [inhibitor, single point] | – |
| COc1ccc(/C=C2\SC(=S)N(CCCC(=O)Nc3ccc(O)cc3)C2=O)cc1 | inconclusive: 31.6 µM [inhibitor, single point] | – |
| O=C(NCC1CCCO1)c1nn2c(C(F)(F)F)cc(-c3cc(Br)cs3)nc2c1Br (stereo unspecified) | active: 10 µM | – |
| CN(C)c1ccc(NC(=O)/C=C/c2c(Cl)cccc2Cl)cc1 | – | inactive: 10.9% |
| COc1ccc(-n2nc(C(=O)NCC(=O)Nc3cc(OC)c(OC)c(OC)c3)c3ccccc3c2=O)cc1Cl | – | inactive: -6.18% |
| CN(C)c1ccc(/C=C(/C#N)C(=O)Nc2nc3c(s2)CCN(Cc2ccccc2)C3)cc1 | inconclusive: 10 µM [inhibitor, partial curve, poor fit] | – |
| Fc1ccc(NCc2nc3ccccc3n2CCOc2ccccc2Cl)cc1 | inconclusive: 35.5 µM [inhibitor, single point] | – |
| Cc1nn(CC(=O)c2ccc(Cl)s2)c(C)c1[N+](=O)[O-] | inconclusive: 15.8 µM [inhibitor, single point] | – |

| Compound | Potency | activity, negative = active |
| --- | --- | --- |
| CN1CCN(Cc2c(O)ccc3occ(C(=O)c4ccccc4)c23)CC1 | – | inactive: 2.48% |
| Cc1nc2ncnn2c(C)c1CCC(=O)N1CCc2ccccc21 | inconclusive: 35.5 µM [inhibitor, single point] | – |
| CC1(N2CCCCC2)C(=O)c2ccccc2C1=O | – | inactive: 2.47% |
| Cc1ccc2sc(N(CCCN(C)C)C(=O)c3ccc(S(=O)(=O)N4CCc5ccccc5C4)cc3)nc2c1C | inconclusive: 11.2 µM [inhibitor, partial curve, poor fit] | – |
| CN1CCN(C(=O)/C=C/c2ccc([N+](=O)[O-])o2)CC1 | inconclusive: 6.31 µM [inhibitor, single point] | – |
| COc1ccc(N(CC(=O)N2CCC(Cc3ccccc3)CC2)S(C)(=O)=O)cc1 | inconclusive: 5.01 µM [inhibitor, single point] | – |
| Cc1ccc(C(c2cc(Cl)c3cccnc3c2O)N2CCN(C)CC2)cc1 (stereo unspecified) | inconclusive: 35.5 µM [inhibitor, single point] | – |
| O=C1NCCCC1C(=O)N/N=C/c1ccc(Cl)cc1 (stereo unspecified) | inconclusive: 12.6 µM [inhibitor, partial curve, poor fit] | – |
| Cn1c(=O)c(Nc2ccc(Cl)cc2)c2c3c(cccc31)C(=O)c1ccccc1-2 | active: 5.01 µM | – |
| CC(=O)NN1C(=O)/C(=C/c2ccc(Br)o2)SC1=S | – | inactive: -10.9% |
| COc1cccc(CC2(CO)CCCN(Cc3ccccc3-c3ccco3)C2)c1 (stereo unspecified) | inconclusive: 17.8 µM [inhibitor, single point] | – |
| COc1ccccc1CN(Cc1cc2cc3c(cc2[nH]c1=O)OCCO3)Cc1nnnn1Cc1ccco1 | inconclusive: 28.2 µM [inhibitor, single point] | – |
| CCSc1nnc(-c2cccc(S(=O)(=O)N(CC)CC)c2)n1Cc1ccccc1 | inconclusive: 35.5 µM [inhibitor, single point] | – |
| O=C1/C(=C\c2ccc(O)cc2)SC(=S)N1Cc1ccccc1 | active: 11.2 µM | – |
| CCOC(=O)c1c(S(=O)(=O)N2CCN(c3cc(Cl)ccc3C)CC2)c(C)n(C)c1C | – | inactive: 2.5% |
| COc1ccccc1NC(=O)COc1ccc(C(=O)OCC(=O)NC(C)(C)C)cc1OC | inconclusive: 35.5 µM [inhibitor, single point] | – |
| CCOC(=O)CCc1c(C)c(C#N)c2nc3ccccc3n2c1-n1cnc2ccccc21 | inconclusive: 15.8 µM [inhibitor, single point] | – |
| CC(C)(C)c1ccc(S(=O)(=O)N(CCCN2CCOCC2)Cc2cccs2)cc1 | inconclusive: 5.01 µM [inhibitor, partial curve, poor fit] | – |
| Cc1c(C(=O)N(Cc2ccc(N(C)C)cc2)C2CCS(=O)(=O)C2)oc2ccccc12 (stereo unspecified) | inconclusive: 35.5 µM [inhibitor, single point] | – |
| Clc1ccc(OCCOCCN2CCc3ccccc3C2)c(Cl)c1 | inconclusive: 17.8 µM [inhibitor, partial curve, poor fit] | – |
| CCN(CC)c1ccc(NC(=O)/C=C/c2cc(Br)ccc2OC)cc1 | inconclusive: 35.5 µM [inhibitor, single point] | – |
| COc1ccc(C2CC(c3cccc(C(F)(F)F)c3)=NN2c2ccc(S(N)(=O)=O)cc2)cc1 (stereo unspecified) | – | inactive: 3.49% |
| COc1ccccc1OCCn1c(=S)[nH]c2ccccc21 | inconclusive: 12.6 µM [inhibitor, single point] | – |

Exported as labelled records: entries from further up
O=C1NCCCC1C(=O)N/N=C/c1ccc(Cl)cc1 (stereo unspecified)
  Potency: inconclusive: 12.6 µM [inhibitor, partial curve, poor fit]
COc1cccc(CC2(CO)CCCN(Cc3ccccc3-c3ccco3)C2)c1 (stereo unspecified)
  Potency: inconclusive: 17.8 µM [inhibitor, single point]
COc1ccccc1CN(Cc1cc2cc3c(cc2[nH]c1=O)OCCO3)Cc1nnnn1Cc1ccco1
  Potency: inconclusive: 28.2 µM [inhibitor, single point]
CCOC(=O)CCc1c(C)c(C#N)c2nc3ccccc3n2c1-n1cnc2ccccc21
  Potency: inconclusive: 15.8 µM [inhibitor, single point]
